Reference: article doi:10.1101/2022.06.03.494746
No constants are given. Whether binding was seen depends on the method and setting. Binding seen in cells or lysates may run through a third protein. Here binding means that the protein was enriched with, or labelled near, the bait; the list need not be complete. A no says only that the protein was not detected with the bait.

B1: PIN7 (protein, UniProt Q940Y5 1-619)
chain: MITWHDLYTVLTAVIPLYVAMILAYGSVRWWKIFSPDQCSGINRFVAIFAVPLLSFHFISSNNPYAMNLRFIAADTLQKLIMLTLLIIWANFTRSGSLEWSITIFSLSTLPNTLVMGIPLLIAMYGEYSGSLMVQIVVLQCIIWYTLLLFLFEYRGAKILIMEQFPETGASIVSFKVESDVVSLDGHDFLETDAQIGDDGKLHVTVRKSNASRRSFYGGGGTNMTPRPSNLTGAEIYSLNTTPRGSNFNHSDFYSMMGFPGGRLSNFGPADMYSVQSSRGPTPRPSNFEESCAMASSPRFGYYPGGAPGSYPAPNPEFSTGNKTGSKAPKENHHHVGKSNSNDAKELHMFVWGSNGSPVSDRAGLQVDNGANEQVGKSDQGGAKEIRMLISDHTQNGENKAGPMNGDYGGEEESERVKEVPNGLHKLRCNSTAELNPKEAIETGETVPVKHMPPASVMTRLILIMVWRKLIRNPNTYSSLIGLIWALVAFRWDVAMPKIIQQSISILSDAGLGMAMFSLGLFMALQPKLIACGNSTATFAMAVRFFTGPAVMAVAAMAIGLRGDLLRVAIVQAALPQGIVPFVFAKEYNVHPAILSTGVIFGMLIALPITLVYYILLGL
B2: Ras-related protein Rab-A5c (protein, UniProt P28187 1-214)
chain: MSDDDERGEEYLFKIVIIGDSAVGKSNLLTRYARNEFNPNSKATIGVEFQTQSMLIDGKEVKAQIWDTAGQERFRAVTSAYYRGAVGALVVYDITRSSTFENVGRWLDELNTHSDTTVAKMLIGNKCDLESIRAVSVEEGKSLAESEGLFFMETSALDSTNVKTAFEMVIREIYSNISRKQLNSDSYKEELTVNRVSLVKNENEGTKTFSCCSR

Columns and labels:
[1] = target: DCP1-TurboID-6xHis-3xFLAG (Arabidopsis); test: affinity purification with mass spectrometry
[2] = target: DCP1-TurboID-6xHis-3xFLAG (Arabidopsis); test: proximity labelling

Binder	binding [1]	binding [2]
B1	no binding	no binding
B2	no binding	no binding
